“And” between values parts separate entries of the source, which are not always exact repeats. Equal entries are not always repeated. Structures can show the parent of a compound that is named as a salt. The list shows a part of the results. Single values are uncertain here, since repeats match poorly.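 PR50, a 50-repeat proline–arginine dipeptide protein from C9ORF72 (ALS/FTD), was expressed by transfection in U-2 OS human cells stably carrying a GFP sensor with import and classical export signals. Per-well nuclear-minus-cytoplasm GFP, normalized between in-plate DMSO (low) and PR-only (high), was scored versus other test wells; compounds well below zero were hits reversing PR.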

In the test the test system is U-2 OS NCT-C biosensor cells expressing PR50. In words: Z-score of normalised NCT-C biosensor translocation index in PR50-expressing cells; higher = more nuclear biosensor (more disrupted nuclear export). To be noted: 3 µM; 24 h.
For the molecule `CN1CCc2cc3c(cc2C(=O)Cc2ccc4c(c2C1)OCO4)OCO3` [Protopine], the Z-score is inactive: -0.426.
On to `O=C1NC(=O)[C@@]2(CCOc3ccc(F)cc32)N1` [Sorbinil], for which the Z-score was inactive: 2.9.
The value for `Cc1ccc(C(=O)c2cc(O)c(O)c([N+](=O)[O-])c2)cc1` [Tolcapone] was inactive: -0.0935.
Next, `COc1ccc2[nH]cc(CCNC(C)=O)c2c1` [Melatonin]: inactive: -0.664.
As to `C=CC[C@@H]1/C=C(\C)C[C@H](C)C[C@H](OC)[C@H]2O[C@@](O)(C(=O)C(=O)N3CCCC[C@H]3C(=O)O[C@H](/C(C)=C/[C@@H]3CC[C@@H](O)[C@H](OC)C3)[C@H](C)[C@@H](O)CC1=O)[C@H](C)C[C@@H]2OC` [Tacrolimus (Fk506)], the Z-score is inactive: 0.0671.
Next, `CC1(C)CCC[C@](C)([C@H]2CC[C@]3(C)[C@@H]2[C@H](O)C[C@@H]2[C@@]4(C)CC[C@H](O)C(C)(C)[C@@H]4CC[C@]23C)O1` [Panaxadiol]: inactive: -0.346.
Next, `COC(=O)C1=C(C)NC(C)=C(C(=O)OC)C1c1cccc(NC(=O)NCCCN2CCC(c3cccc(OC)c3)CC2)c1`: inactive: -0.56.
Next, `CC(C)c1cccc(C(C)C)c1N1C(=O)c2ccc(O)cc2C1=O`: inactive: -0.468; `OC(CCN1CCCCC1)(c1ccccc1)C1CC2C=CC1C2` (stereo unspecified) [Biperiden hydrochloride]: inactive: 3.08.
Consider `OC(CCN1CCCCC1)(c1ccccc1)C1CC2C=CC1C2` (stereo unspecified) [Biperiden·HCl], for which the Z-score was inactive: -0.0398.
Regarding `CCN(CC)CC#CCOC(=O)C(O)(c1ccccc1)C1CCCCC1` (stereo unspecified) [Oxybutynin Chloride], the Z-score was inactive: -0.534.
Regarding `Cc1ncc([N+](=O)[O-])n1CCO` [Metronidazole], the Z-score was inactive: 0.13.
As for `CCCCCc1ccc(/C=C/C(=O)Nc2cc(Cl)ccc2C(=O)O)cc1`, the Z-score is inactive: 1.51.
The value for `N=C(N)c1ccccc1` [Benzamidine hydrochloride] was inactive: 2.98; that for `CCN(Cc1ccncc1)C(=O)C(CO)c1ccccc1` (stereo unspecified) [Tropicamide] was inactive: 0.322; that for `CC(C)N1CCN(c2ccc(OCC3COC(Cn4cncn4)(c4ccc(Cl)cc4Cl)O3)cc2)CC1` (stereo unspecified) [Terconazole] was inactive: -0.808.
Next, `CN1C2CCCC1CC(NC(=O)c1nn(C)c3ccccc13)C2` (stereo unspecified) [Granisetron·HCl]: inactive: 0.435; `CN1C2CCCC1CC(NC(=O)c1nn(C)c3ccccc13)C2` (stereo unspecified) [Granisetron hydrochloride]: inactive: -1.13.
The value for `CCN(CC)CCNC(=O)c1cc(S(C)(=O)=O)ccc1OC` [Tiapride hydrochloride] was inactive: 0.885.
`O=C(CCCN1CC=C(n2c(=O)[nH]c3ccccc32)CC1)c1ccc(F)cc1` [Droperidol]: the Z-score is inactive: 0.277.
Next, `Cc1cccc(/C=C/c2ccccc2)n1`: inactive: -0.46.
Next, `COc1ccc2cc(CCC(C)=O)ccc2c1` [Nabumetone]: inactive: -0.22; `O=C(O)/C=C/c1c[nH]c2ccccc12` [3-Beta-Indoleacrylic acid]: inactive: -0.678.
With `O=c1[nH]c2ccccc2c2ccccc12` [6(5H)-  Phenanthridinone], the Z-score is inactive: -1.4.
Next, `C#CCN(C)Cc1ccccc1` [Pargyline hydrochloride]: inactive: 0.55.
As to `O=c1c(O)c(-c2cc(O)c(O)c(O)c2)oc2cc(O)cc(O)c12` [Myricetin], the Z-score is inactive: -0.503.
With `O=c1cc(-c2ccccc2)oc2cc(O)c(O)cc12` [6,7-Dihydroxyflavone], the Z-score is inactive: -0.994.
The value for `COc1ccc(-c2cc(=O)c3c(O)cc(O)cc3o2)cc1` [Acacetine] was inactive: 0.374; that for `COc1nc(C)nc(Cl)c1NC1=NCCN1` [Moxonidine hydrochloride] was inactive: -0.439.
With `O=C(Nc1cc(C(F)(F)F)ccc1N1CCCCC1)c1ccncc1`, the Z-score was inactive: -0.852.
The value for `COc1cc2nc(N3CCN(C(=O)c4ccco4)CC3)nc(N)c2cc1OC` [Prazosin·HCl] was active: -2.41.
Next, `COc1cc2nc(N3CCN(C(=O)c4ccco4)CC3)nc(N)c2cc1OC` [Prazosin hydrochloride]: inactive: 0.174; `NCCS(=O)(=O)O` [Taurine]: inactive: -0.128.
In the case of `CCCCS(=O)(=O)N[C@@H](Cc1ccc(OCCCCC2CCNCC2)cc1)C(=O)O` [Tirofiban hydrochloride monohydrate], the Z-score is inactive: -1.32.
The value for `CCCCS(=O)(=O)N[C@@H](Cc1ccc(OCCCCC2CCNCC2)cc1)C(=O)O` [Tirofiban·HCl monohydrate] was inactive: -0.581; that for `N#CC(C#N)=C(N)/C(C#N)=C/c1ccc(O)cc1` [Tyrphostin AG 112] was inactive: -0.406.
For the molecule `CCN(CC)Cc1ccc2cc(COC(=O)Nc3ccc(C(=O)NO)cc3)ccc2c1` [Givinostat (ITF2357)], the Z-score was inactive: -0.532.
Regarding `O=c1oc(Cl)c(Cl)c2ccccc12` [3,4-Dichloroisocoumarin], the Z-score is inactive: -0.516.
With `NCCCCCCCCCCN` [1,10-  Diaminodecane], the Z-score is inactive: 0.0339.
As to `OC[C@H]1O[C@@H](Oc2ccc(O)cc2)[C@H](O)[C@@H](O)[C@@H]1O` [Arbutin], the Z-score was inactive: -0.47.
On to `O=C(c1ccc(C(=O)N2CCC(N3CCCC3)CC2)c(Nc2ccccc2)c1)N1CCC(N2CCCC2)CC1`, for which the Z-score is active: -2.5.
Take `Nc1ccc(S(=O)(=O)c2ccc(N)cc2)cc1` [Dapsone]: the Z-score was inactive: -0.00477.
The value for `O=Nc1ccc(O)c2ncccc12` was inactive: -1.54; that for `CN(C)CCc1c[nH]c2ccc(Cn3cncn3)cc12` [Rizatriptan Benzoate] was inactive: -1.02.
The value for `CN(C)CCc1c[nH]c2ccc(Cn3cncn3)cc12` [Rizatriptan benzoate salt] was inactive: -0.44; that for `OCCN1CCN(CCCN2c3ccccc3Sc3ccc(Cl)cc32)CC1` [Perphenazine] was inactive: -0.329; that for `CCCC(=O)O[C@]1(C(=O)COC(C)=O)CC[C@H]2[C@@H]3C[C@H](F)C4=CC(=O)C=C[C@]4(C)[C@@]3(F)[C@@H](O)C[C@@]21C` [Difluprednate] was inactive: -0.175.
As to `CCC[C@H](N[C@@H](C)C(=O)N1[C@H](C(=O)O)C[C@@H]2CCCC[C@@H]21)C(=O)OCC` [Perindopril Erbumine], the Z-score was inactive: -0.27.
The value for `O=c1c(-c2ccc(O)cc2)coc2cc(O[C@@H]3O[C@H](CO)[C@@H](O)[C@H](O)[C@H]3O)cc(O)c12` [Genistin] was inactive: 0.284; that for `N#Cc1c2nc3ccccc3nc2n2ccc(NC(=O)c3cccs3)cc12` was inactive: 2.86; that for `O=C1c2ccccc2-n2c1nc1ccccc1c2=O` [Tryptanthrin] was inactive: -0.61.
Consider `Clc1ccc(-c2csc(NN=C3CCCC3)n2)cc1`, for which the Z-score was active: -2.02.
As for `CCN1CCN(C(=O)N[C@@H](C(=O)N[C@@H]2C(=O)N3[C@@H]2SC(C)(C)[C@@H]3C(=O)O)c2ccccc2)C(=O)C1=O` [Piperacillin], the Z-score is inactive: -0.453.
The value for `CN1CCCC(n2nc(Cc3ccc(Cl)cc3)c3ccccc3c2=O)CC1` (stereo unspecified) [Azelastine·HCl] was inactive: -0.159; that for `CN(C)CCC[C@@]1(c2ccc(F)cc2)OCc2cc(C#N)ccc21` [Escitalopram] was inactive: 0.35; that for `COc1ccc(C2(CNC(=O)c3ccc(NC(=O)c4ccco4)cc3)CCOCC2)cc1` was inactive: -0.327.
Take `Cc1nc(N=Nc2ccc(C(=O)O)cc2)c(COP(=O)(O)O)c(C=O)c1O`: the Z-score was inactive: 0.015.
Consider `C[C@H]1C[C@H]2[C@@H]3CCC4=CC(=O)C=C[C@]4(C)[C@@]3(Cl)[C@@H](O)C[C@]2(C)[C@@]1(O)C(=O)CO` [Beclomethasone], for which the Z-score was inactive: -0.0652.
Next, `Oc1ccc(O)cc1` [Hydroquinone]: inactive: -0.33.
The value for `COc1cc2nc(N3CCN(C(=O)C4CCCO4)CC3)nc(N)c2cc1OC` (stereo unspecified) [Terazosin·HCl] was inactive: 0.673; that for `CC1CCN=C(N)S1` (racemic) [(±)-AMT  hydrochloride] was inactive: 1.03.
With `CC(C)(O)CC[C@@H](O)[C@](C)(O)[C@H]1CC[C@@]2(O)C3=CC(=O)[C@@H]4C[C@@H](O)[C@@H](O)C[C@]4(C)[C@H]3CC[C@]12C` [β-Ecdysone], the Z-score is inactive: -0.371.
The value for `O=C1c2c(O)cc(O)cc2O[C@H](c2ccc(O)c(O)c2)[C@H]1O` [(+)-Taxifolin] was inactive: -0.107; that for `O=C1c2ccccc2C(=O)c2c(NCCc3ccc(O)cc3)ccc(NCCc3ccc(O)cc3)c21` was inactive: -0.0094 and inactive: 0.176.
The value for `Nc1ccn(C[C@@H](CO)OCP(=O)(O)O)c(=O)n1` [Cidofovir] was inactive: 0.388; that for `CNCC[C@H](Oc1ccc(C(F)(F)F)cc1)c1ccccc1` [S-(+)-Fluoxetine hydrochloride] was inactive: -0.193.
On to `CC(=O)OCC(=O)[C@@]1(O)CC[C@H]2[C@@H]3CCC4=CC(=O)CC[C@]4(C)[C@H]3C(=O)C[C@@]21C` [Cortisone 21- acetate], for which the Z-score was inactive: -0.165.
The value for `CC(=O)OCC(=O)[C@@]1(O)CC[C@H]2[C@@H]3CCC4=CC(=O)CC[C@]4(C)[C@H]3C(=O)C[C@@]21C` [Cortisone Acetate] was inactive: -0.173; that for `Cn1cc(C(=O)OCC2CCN(CCNS(C)(=O)=O)CC2)c2ccccc21` was inactive: 0.142.
The value for `O=c1c(O)c(-c2ccccc2O)oc2cc(O)cc(O)c12` [Datiscetin] was inactive: 0.198; that for `CC1=C(/C=C/C(C)=C/C=C/C(C)=C/C(=O)Nc2ccc(O)cc2)C(C)(C)CCC1` [Retinoic acid p- hydroxyanilide] was inactive: -0.302.

The record behind these values is the supplement of paper PMC8616043.
